Library screen at single concentrations

Sequences of proteins named here, by UniProt entry; tags and fusion partners are left off. Residues count along the entry.
UniProt P9WFT3, whole entry: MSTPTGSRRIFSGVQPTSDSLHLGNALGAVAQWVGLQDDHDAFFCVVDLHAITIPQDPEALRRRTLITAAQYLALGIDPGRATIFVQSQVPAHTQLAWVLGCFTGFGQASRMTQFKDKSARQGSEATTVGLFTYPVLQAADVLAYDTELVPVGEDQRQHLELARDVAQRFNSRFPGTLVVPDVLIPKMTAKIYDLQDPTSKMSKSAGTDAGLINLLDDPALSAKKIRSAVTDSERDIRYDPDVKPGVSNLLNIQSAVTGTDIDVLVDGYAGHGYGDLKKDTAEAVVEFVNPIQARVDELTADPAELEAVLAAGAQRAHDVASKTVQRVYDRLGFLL
UniProt I6X8D2, whole entry: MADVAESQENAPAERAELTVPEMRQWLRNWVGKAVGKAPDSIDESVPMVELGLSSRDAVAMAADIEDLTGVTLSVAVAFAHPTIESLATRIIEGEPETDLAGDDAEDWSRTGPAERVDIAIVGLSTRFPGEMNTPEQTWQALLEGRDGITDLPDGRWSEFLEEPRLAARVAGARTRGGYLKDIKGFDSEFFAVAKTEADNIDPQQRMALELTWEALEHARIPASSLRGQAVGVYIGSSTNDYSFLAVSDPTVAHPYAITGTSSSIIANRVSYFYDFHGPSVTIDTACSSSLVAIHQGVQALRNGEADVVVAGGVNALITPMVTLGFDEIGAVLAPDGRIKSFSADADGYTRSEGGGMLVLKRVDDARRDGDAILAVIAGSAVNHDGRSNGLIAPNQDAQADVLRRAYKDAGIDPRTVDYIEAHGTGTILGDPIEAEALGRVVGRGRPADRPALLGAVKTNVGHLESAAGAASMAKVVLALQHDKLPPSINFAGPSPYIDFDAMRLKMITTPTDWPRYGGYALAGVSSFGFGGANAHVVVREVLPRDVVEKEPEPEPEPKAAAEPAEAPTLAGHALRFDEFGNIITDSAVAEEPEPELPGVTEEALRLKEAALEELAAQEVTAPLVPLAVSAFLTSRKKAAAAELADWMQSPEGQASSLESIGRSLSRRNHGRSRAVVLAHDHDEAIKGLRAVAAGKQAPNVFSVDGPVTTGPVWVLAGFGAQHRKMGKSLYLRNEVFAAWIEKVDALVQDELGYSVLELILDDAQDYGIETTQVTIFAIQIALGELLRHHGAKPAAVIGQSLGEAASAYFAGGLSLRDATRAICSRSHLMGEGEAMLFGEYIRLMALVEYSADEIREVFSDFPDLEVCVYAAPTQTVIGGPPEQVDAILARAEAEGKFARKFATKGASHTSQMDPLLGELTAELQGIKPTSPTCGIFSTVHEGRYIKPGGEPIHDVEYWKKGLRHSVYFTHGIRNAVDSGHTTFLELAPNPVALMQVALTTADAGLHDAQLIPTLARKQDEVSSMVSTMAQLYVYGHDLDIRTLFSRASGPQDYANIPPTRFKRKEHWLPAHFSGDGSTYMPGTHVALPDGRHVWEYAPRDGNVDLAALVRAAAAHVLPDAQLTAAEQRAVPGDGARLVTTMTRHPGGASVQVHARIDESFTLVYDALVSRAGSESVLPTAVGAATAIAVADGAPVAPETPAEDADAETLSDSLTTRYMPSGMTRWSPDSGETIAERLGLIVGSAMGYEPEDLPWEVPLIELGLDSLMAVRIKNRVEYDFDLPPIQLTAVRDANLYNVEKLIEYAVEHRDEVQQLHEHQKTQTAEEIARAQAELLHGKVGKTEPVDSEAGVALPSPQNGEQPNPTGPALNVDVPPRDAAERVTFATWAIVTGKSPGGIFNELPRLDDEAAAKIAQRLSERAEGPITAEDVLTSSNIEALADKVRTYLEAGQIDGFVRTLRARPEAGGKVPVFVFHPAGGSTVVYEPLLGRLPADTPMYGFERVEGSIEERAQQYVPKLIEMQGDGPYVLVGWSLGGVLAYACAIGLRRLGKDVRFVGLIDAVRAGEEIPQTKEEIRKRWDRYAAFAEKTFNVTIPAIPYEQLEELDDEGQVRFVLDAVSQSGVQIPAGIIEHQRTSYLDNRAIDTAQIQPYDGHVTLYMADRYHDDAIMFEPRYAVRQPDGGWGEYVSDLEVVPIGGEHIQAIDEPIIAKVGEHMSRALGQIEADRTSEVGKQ
UniProt A4I591, 1-473: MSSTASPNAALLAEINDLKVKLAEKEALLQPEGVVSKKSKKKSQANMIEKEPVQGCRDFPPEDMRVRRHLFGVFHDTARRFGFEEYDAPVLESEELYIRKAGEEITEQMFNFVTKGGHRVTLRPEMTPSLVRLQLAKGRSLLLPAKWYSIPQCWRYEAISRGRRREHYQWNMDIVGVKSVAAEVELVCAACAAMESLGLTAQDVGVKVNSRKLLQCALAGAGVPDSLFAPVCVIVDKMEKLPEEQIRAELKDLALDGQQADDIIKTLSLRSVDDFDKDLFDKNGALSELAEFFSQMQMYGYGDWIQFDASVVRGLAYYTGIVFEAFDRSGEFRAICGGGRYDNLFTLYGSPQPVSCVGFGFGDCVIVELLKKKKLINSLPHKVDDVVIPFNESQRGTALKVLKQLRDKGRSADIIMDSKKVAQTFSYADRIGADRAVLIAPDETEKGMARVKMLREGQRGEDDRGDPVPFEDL
UniProt Q4DA54, 1-478: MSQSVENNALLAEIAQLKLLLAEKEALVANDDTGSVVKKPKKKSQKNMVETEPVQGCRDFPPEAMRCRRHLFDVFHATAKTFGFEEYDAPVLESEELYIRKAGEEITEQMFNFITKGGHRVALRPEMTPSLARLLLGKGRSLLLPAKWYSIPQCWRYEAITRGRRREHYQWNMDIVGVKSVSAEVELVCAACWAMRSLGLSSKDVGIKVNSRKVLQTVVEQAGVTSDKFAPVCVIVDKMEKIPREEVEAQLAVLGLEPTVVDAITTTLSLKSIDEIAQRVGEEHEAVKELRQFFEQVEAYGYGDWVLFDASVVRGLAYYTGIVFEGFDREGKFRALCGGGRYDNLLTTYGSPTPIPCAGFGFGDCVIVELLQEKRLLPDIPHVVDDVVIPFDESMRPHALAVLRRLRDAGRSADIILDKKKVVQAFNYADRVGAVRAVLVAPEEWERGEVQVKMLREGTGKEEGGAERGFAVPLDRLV

The values are deposited in ChEMBL (CHEMBL3988442, “University of Dundee, Small-Polar-MMV Screening Library” (2021)).

MtTrpRS: 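Tryptophan-tRNA ligase, Mycobacterium tuberculosis (UniProt P9WFT3). Enzyme assay of tryptophanyl-tRNA synthetase; the read-out is not stated. Concentration: 10 µM. Direction is not recorded; retested compounds ran higher, which suggests that high means inhibition. Size under these conditions: about 65,000 compounds, about 64 of them at 50% or above in at least one test.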
Pks13 thioesterase: 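Polyketide synthase Pks13, Mycobacterium tuberculosis (UniProt I6X8D2). Enzyme assay of the thioesterase domain of polyketide synthase 13; the read-out is not stated. Concentration: 30 µM. Higher reads as stronger inhibition (inferred from which compounds were picked for retests). About 67,000 compounds were tested under these conditions; 0.46% (about 300) showed 50% or more at least once.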
LiHisRS: 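Histidine-tRNA ligase, Leishmania infantum (UniProt A4I591). Enzyme assay of histidyl-tRNA synthetase; the read-out is not stated. Compounds at 30 µM. Higher reads as stronger inhibition (inferred: compounds with an IC50 in retests scored well above the rest). The assay is labelled LdHisRS but filed under L. infantum. About 69,000 compounds were tested under these conditions; 0.6% (about 410) showed 50% or more at least once.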
TcHisRS: 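Enzyme assay of histidyl-tRNA synthetase; the read-out is not stated. Target: Histidine-tRNA ligase, Trypanosoma cruzi CL Brener (UniProt Q4DA54). Tested at 30 µM. Direction is inferred from retests: higher values go with stronger inhibition. About 69,000 compounds were tested under these conditions; 0.045% (about 31) showed 50% or more at least once.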

Results are given as percent effect.
The record does not define 0% and 100%; most values in the screen are far below 50% and negative numbers occur (in some assays of this library far below -100).
Compounds were drawn at random from those tested, without regard to their results.
A dash means the value is not listed here; it may have been measured.

| Compound | MtTrpRS | Pks13 thioesterase | LiHisRS | TcHisRS |
|---|---|---|---|---|
| `Cc1ccc(N2CC[C@@H]3[C@@H]2CCN3Cc2ccsc2)nn1` | - | -13.9% | 6.306% | 2.21% |
| `COCCNc1ccccc1CNC(=O)NCc1cnc(C)s1` | 0.4691% | -0.8698% | -1.653% | 6.122% |
| `CC1CN(C)c2ccccc2CN1C(=O)NCc1ccon1` (centres undefined) | -4.413% | -41.3% | 6.897% | 0.5236% |
| `Cc1ccc(CNC2CCCc3c2cnn3C)s1` (centres undefined) | -2.267% | -12.69% | 24% | 1.132% |
| `CCS(=O)(=O)N1CCC2(CN(c3ccsc3)C(=O)CN2C)C1` (centres undefined) | 6.812% | -0.7318% | 19.75% | 7.975% |
| `O=C(O)c1nnn(-c2ccccc2F)c1-c1ccncc1` | 3.749% | 27.21% | 13.16% | -12.2% |
| `Cc1cccc(Nc2cc(C)nc(C3CCCCN3CC(N)=O)n2)n1` (centres undefined) | - | 12.95% | 15.94% | 7.692% |
| `Cc1cnn(CCNCc2csc(-c3ccc4c(c3)OCO4)n2)c1` | -6.132% | 8.768% | 31.2% | 5.703% |
| `c1ccc(COC[C@@H]2CCC[C@@]23CNCCO3)nc1` | - | -35.96% | 15.45% | 12.7% |
| `Cc1occc1C(=O)N1CCn2c(COCC3CC3)cnc2C1C` (centres undefined) | -3.662% | -20% | 14.55% | 10.74% |
| `Cc1ccc(CCC(C)NC2CCN(C(N)=O)CC2)cc1` (centres undefined) | -6.242% | - | 7.965% | 3.097% |
| `CCc1nc(CN(C)CC(=O)N(C)C2CC2)cs1` | -0.7776% | -12.69% | 11.96% | -5.941% |
| `CCN(CC)C(=O)C(c1ccccc1)N1CCn2c(C)nnc2C1` (centres undefined) | -0.3712% | -17.86% | -4.255% | 1.527% |
| `COCCC(=O)N1C[C@@H]2COC[C@]2(COCc2cccnc2)C1` | -1.654% | -15.1% | 10.68% | 0% |
| `CN(Cc1ccco1)C[C@@H]1OC[C@H]2CN(Cc3nccs3)CC[C@H]21` | 6.988% | -10.19% | 15.07% | 0.9901% |
| `N#Cc1cc(NC(=O)c2cscn2)ccc1N1CCC(O)CC1` | -3.263% | - | 20.55% | 5.911% |
| `CCOC(=O)C1CCN(C(=O)Cn2ccc3cc(Br)ccc32)CC1` | 10.85% | -19.92% | 15.53% | -18.03% |
| `O=C(CCn1cncn1)NCC1CCOC1` (centres undefined) | -1.878% | 0.1568% | 15.38% | 2.299% |
| `COCCNC(=O)[C@H]1CO[C@H]2CCN(Cc3cccs3)C[C@H]2C1` | - | -8.155% | 4.545% | 0% |
| `O=S(=O)(CCc1ccccc1)Nc1cc(Cl)ccn1` | -0.1009% | -21.15% | 38.03% | 21.02% |
| `CCNC(=O)CS(=O)(=O)NC1CCC(C)CC1` (centres undefined) | -3.6% | -1.471% | 11.9% | 8.911% |
| `CC(C)(C)S(=O)(=O)c1ccc(N2CCC(n3ccnc3)CC2)cn1` | 6.033% | -31.86% | 13.92% | 7.328% |
| `CCCN1CCN(C(=O)c2ccnc(N)c2)[C@H]2CS(=O)(=O)C[C@H]21` | 2.916% | -5.178% | 16.67% | 4.082% |
| `CCCC(=O)N1CCOC2(COCCN(CC(=O)NC)C2)C1` (centres undefined) | 2.766% | -0.08775% | 10.26% | 0% |
| `CC(C)CN1C[C@H]2CCN(C(=O)NC3CCCC3)CC[C@H]2S1(=O)=O` | 2.351% | 6.923% | 12.82% | 3.659% |
| `O=C(Nc1cccc(F)c1)C1=NOC2(CCNCC2)C1` | -0.541% | - | 13.16% | 5.747% |
| `Cc1nc(CN2CCN(S(=O)(=O)N3CCCCC3)CC2)oc1C` | -4.806% | -36.49% | 11.4% | 4.972% |
| `Clc1ccc(CN2CCC(C3CCN(Cc4cccnc4)CC3)C2)cc1` (centres undefined) | -2.064% | -18.88% | 22.5% | 23.68% |
| `CCN1Cc2cc(F)ccc2N(C(C)=O)CCC1=O` | - | 8.975% | 14.29% | 3.371% |
| `Cc1cnc(C(=O)N2C[C@H]3CCCC(OCc4cccnc4)[C@H]3C2)cn1` (some centres undefined) | 0.6509% | 7.844% | 0% | 3.922% |
| `CCOc1ccccc1C(=O)Nc1cccc(C[S+](C)[O-])c1C` (centres undefined) | -0.571% | -22.71% | -1.149% | 2.062% |
| `c1nc2c(c(NC3CCC3)n1)CCNCC2` | 0.7551% | -13.19% | 17.24% | 8.861% |
| `COc1ccc(C(=O)N2C[C@@H](C(=O)O)[C@H](c3ccccc3)C2)c(C)c1` | 10.82% | -4.242% | 8.197% | -6.977% |
| `c1cnc(-c2nc(CN3CCN(CC4CC4)CC3)cs2)nc1` | -12.39% | -17.44% | 16.51% | 5.539% |
| `O=C1NCC[C@]12CN(Cc1ccncc1)C[C@H]2c1ccccc1` | -2.581% | -11.77% | 7.018% | 5.464% |
| `CCc1ccc(CN2CCC3(CC2)C(=O)N(C)CCN3CC2CC2)cc1` | -6.386% | -12.8% | 3.883% | 0.9709% |
| `COc1ccc2cc(CNc3c(C)nn(C(C)C)c3C)ccc2c1` | -6.797% | -0.5868% | 7.692% | 6.18% |
| `O=C1CNc2ncnc(Nc3cnn(Cc4ccc(F)cc4)c3)c2N1` | -0.8414% | 27.44% | 20.88% | 6.931% |

For reference, 4 entries once more:

Compound,MtTrpRS,Pks13 thioesterase,LiHisRS,TcHisRS
CCS(=O)(=O)N1CCC2(CN(c3ccsc3)C(=O)CN2C)C1 (centres undefined),6.812%,-0.7318%,19.75%,7.975%
c1cnc(-c2nc(CN3CCN(CC4CC4)CC3)cs2)nc1,-12.39%,-17.44%,16.51%,5.539%
Clc1ccc(CN2CCC(C3CCN(Cc4cccnc4)CC3)C2)cc1 (centres undefined),-2.064%,-18.88%,22.5%,23.68%
CCN(CC)C(=O)C(c1ccccc1)N1CCn2c(C)nnc2C1 (centres undefined),-0.3712%,-17.86%,-4.255%,1.527%